Reference: patent US20160264653A1
Results are given in words; binding and its absence hold for the method and conditions named. Some results given as binding are weak or reduced against the parent protein; the word gives no strength.

T1: EFNA4 antigen (human) (UniProt P52798)
T1 sequence: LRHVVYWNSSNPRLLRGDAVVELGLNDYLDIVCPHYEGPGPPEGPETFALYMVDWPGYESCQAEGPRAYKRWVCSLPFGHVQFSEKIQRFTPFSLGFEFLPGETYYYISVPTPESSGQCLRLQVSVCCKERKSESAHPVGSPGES


Biological target: T1, EFNA4 antigen (human)
Test: SPR (Biacore)

Binder | binding
hSC4.15 (antibody, V domains shown) VH: EVQLVESGGGLVKPGGSLRLSCAASGFTFSTYGMSWVRQAPGKGLEWVATISSGGTYTYYPDSVKGRFKISRDNAKNSLYLQMNSLRAEDTAVYYCTRHDPNDGYYFLFAYWGQGTLVTVSS VL: EIVLTQSPGTLSLSPGERATLSCKASQSVGNNVAWYQQKPGQAPRLLIYYASNRYTGIPDRFSGSGSGTDFTLTISRLEPEDFAVYYCQQHYSSPLTFGAGTKLEIK | binds
hSC4.5 (antibody, human IgG1, V domains shown) VH: EVQLVESGGGLVQPGGSLRLSCAASGFTVTTYGVDWVRQAPGKGLEWLGVIWGGGSTNYNSALKSRFTISRDNSKNTLYLQMNSLRAEDTAVYYCASDWAYWGQGTLVTVSS VL: DIQMTQSPSSLSASVGDRVTITCRASQNVGTNVAWFQQKPGKAPKSLIHSASYRYSGVPSRFSGSGSGTDFTLTISSLQPEDFATYYCQQYKRYPYTFGGGTKLEIK | binds

Further lines, results first:

binding | Binder
binds | hSC4.22 (antibody, human IgG1, V domains shown) VH: QVQLVQSGAEVKKPGASVKVSCKASGYTFTGYYIHWVRQAPGQGLEWMGWIYPGNFNTKYNERFKGRVTMTTDTSTSTAYMELRSLRSDDTAVYYCAREDGSPYYAMDYWGQGTSVTVSS VL: DIVMTQTPLSLSVTPGQPASISCRSSQSLVHSNGNTFLYWYLQKPGQSPQLLIYRVSNRFSGVPDRFSGSGSGTDFTLKISRVEAEDVGVYYCFQATHVPWTFGGGTKVEIK
binds | hSC4.47 (antibody, human IgG1, V domains shown) VH: QVQLVQSGAEVKKPGASVKVSCKASGYTFTYFYMNWVRQAPGQGLEWVGQINPNNGGTAYAQKFQGRVTMTRDTSTSTVYMELSSLRSEDTAVYYCARWVGTHYFDYWGQGTTLTVSS VL: EIVLTQSPATLSLSPGERATLSCRASQSVSSSSYTYIHWYQQKPGQAPRLLINFASNLESGIPARFSGSGSGTDFTLTISSLEPEDFAVYYCQHSWEIPPTFGGGTKLEIK
